Measurements published in the supplement of paper PMC12593923.
Where a name gives a salt, the structure may show the parent alone. Some well-known active drugs show little effect in this data set, so a weak value is uncertain.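 The three lines are all high-grade serous ovarian cancer cells with differing chemosensitivity; OVCAR3 is described as chemosensitive. Toxicity was normalized between DMSO vehicle wells and fully lysed wells, the score comes from a fitted multi-dose response curve, and a score above 5 was counted as drug sensitivity.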

Assays:
Assay in all cases: drug sensitivity score (DSS2, cytotoxicity, CellTox Green); higher = more cytotoxic / more sensitive; extreme values may be limits of the assay
Conditions in all cases: 72 h; doses 0.5, 1, 5 µM
OVCAR3 = tested on: OVCAR3
OVCAR4 = tested on: OVCAR4
Kuramochi = tested on: Kuramochi

Row | SMILES | drug sensitivity score (OVCAR3) [DSS] | drug sensitivity score (OVCAR4) [DSS] | drug sensitivity score (Kuramochi) [DSS]
1 | COc1ccc(C[C@@H]2c3cc(OC)c(OC)cc3CC[N@+]2(C)CCC(=O)OCCCCCOC(=O)CC[N@@+]2(C)CCc3cc(OC)c(OC)cc3[C@H]2Cc2ccc(OC)c(OC)c2)cc1OC [Cisatracurium (besylate)] | 0 | 0 | 0
2 | COc1ccc(C(=O)c2ccccc2)c(O)c1 [Oxybenzone] | 0 | 0 | 0
3 | CCOC(=O)c1ccc(C#Cc2ccc3c(c2)C(C)(C)CCS3)nc1 [Tazarotene] | 0 | 0 | 0
4 | O=c1[nH]c2ccccc2n1C1CCN(CCCC(c2ccc(F)cc2)c2ccc(F)cc2)CC1 [Pimozide] | 0 | 0.1 | 0
5 | C[C@H](CCC(=O)NCCS(=O)(=O)O)[C@H]1CC[C@H]2[C@@H]3CC[C@@H]4C[C@H](O)CC[C@]4(C)[C@H]3C[C@H](O)[C@]12C [Taurodeoxycholic acid (sodium hydrate)] | 0 | 0 | 0
6 | CO[C@H]1C[C@@H]2CC[C@@H](C)[C@@](O)(O2)C(=O)C(=O)N2CCCC[C@H]2C(=O)O[C@H]([C@H](C)C[C@@H]2CC[C@@H](O)[C@H](OC)C2)CC(=O)[C@H](C)/C=C(\C)[C@@H](O)[C@@H](OC)C(=O)[C@H](C)C[C@H](C)/C=C/C=C/C=C/1C [Rapamycin] | 0 | 0 | 0
7 | CCN(CC)CCNC(=O)c1c(C)[nH]c(/C=C2\C(=O)Nc3ccc(F)cc32)c1C [Sunitinib] | 0 | 0 | 0
8 | O=C1CN(/N=C/c2ccc(-c3ccc([N+](=O)[O-])cc3)o2)C(=O)N1 [Dantrolene (sodium hemiheptahydrate)] | 0 | 0 | 0
9 | CCN(CC)CCNC(=O)c1ccc(N)cc1 [Procainamide (hydrochloride)] | 0 | 0 | 0
10 | CS(=O)(=O)OCCCCOS(C)(=O)=O [Busulfan] | 0.4 | 0 | 0.6
11 | COc1cc2nc(N3CCN(C(=O)C4COc5ccccc5O4)CC3)nc(N)c2cc1OC (centres undefined) [Doxazosin (mesylate)] | 0 | 0 | 0
12 | C[C@H]1C[C@H]2[C@@H]3CCC4=CC(=O)C=C[C@]4(C)[C@@]3(F)[C@@H](O)C[C@]2(C)[C@@]1(O)C(=O)CO [Betamethasone] | 0 | 0 | 0
13 | CC(C)C[C@H](NC(=O)CNC(=O)c1cc(Cl)ccc1Cl)B1OC(=O)C(CC(=O)O)(CC(=O)O)O1 [Ixazomib citrate] | 2.3 | 2.3 | 2.6
14 | CC(C)(C(=O)c1cccnc1)c1cccnc1 [Metyrapone] | 0 | 0 | 0
15 | COc1ccc(Cl)cc1C(=O)NCCc1ccc(S(=O)(=O)NC(=O)NC2CCCCC2)cc1 [Glibenclamide] | 0 | 0 | 0
16 | CC(C)(C)c1ccc(C(=O)NC(=S)Nc2ccc(N)cc2)cc1 [Tenovin-3] | 0 | 0 | 0
17 | CCCC(=O)Nc1ncnc2c1ncn2[C@@H]1O[C@@H]2COP(=O)(O)O[C@H]2[C@H]1OC(=O)CCC [Bucladesine (calcium)] | 0 | 0 | 0
18 | CCCCCCCC/C=C/CCCCCCCC(=O)OC[C@H]1O[C@@H](n2ccc(N)nc2=O)C(F)(F)[C@@H]1O [Gemcitabine (elaidate)] | 0 | 0 | 0

Another view of some results above.
O=C1CN(/N=C/c2ccc(-c3ccc([N+](=O)[O-])cc3)o2)C(=O)N1 [Dantrolene (sodium hemiheptahydrate)]
  drug sensitivity score (OVCAR3) [DSS]: 0
  drug sensitivity score (OVCAR4) [DSS]: 0
  drug sensitivity score (Kuramochi) [DSS]: 0
CCN(CC)CCNC(=O)c1ccc(N)cc1 [Procainamide (hydrochloride)]
  drug sensitivity score (OVCAR3) [DSS]: 0
  drug sensitivity score (OVCAR4) [DSS]: 0
  drug sensitivity score (Kuramochi) [DSS]: 0
